In paper PMC11555713 one finds binding data, which are given here for six molecules.

Chains of the proteins cited; added tags and fusions are not shown. Lines headed by an entry give the natural chain unless they say otherwise; changes in a name come on top.
UniProt Q9BXL6: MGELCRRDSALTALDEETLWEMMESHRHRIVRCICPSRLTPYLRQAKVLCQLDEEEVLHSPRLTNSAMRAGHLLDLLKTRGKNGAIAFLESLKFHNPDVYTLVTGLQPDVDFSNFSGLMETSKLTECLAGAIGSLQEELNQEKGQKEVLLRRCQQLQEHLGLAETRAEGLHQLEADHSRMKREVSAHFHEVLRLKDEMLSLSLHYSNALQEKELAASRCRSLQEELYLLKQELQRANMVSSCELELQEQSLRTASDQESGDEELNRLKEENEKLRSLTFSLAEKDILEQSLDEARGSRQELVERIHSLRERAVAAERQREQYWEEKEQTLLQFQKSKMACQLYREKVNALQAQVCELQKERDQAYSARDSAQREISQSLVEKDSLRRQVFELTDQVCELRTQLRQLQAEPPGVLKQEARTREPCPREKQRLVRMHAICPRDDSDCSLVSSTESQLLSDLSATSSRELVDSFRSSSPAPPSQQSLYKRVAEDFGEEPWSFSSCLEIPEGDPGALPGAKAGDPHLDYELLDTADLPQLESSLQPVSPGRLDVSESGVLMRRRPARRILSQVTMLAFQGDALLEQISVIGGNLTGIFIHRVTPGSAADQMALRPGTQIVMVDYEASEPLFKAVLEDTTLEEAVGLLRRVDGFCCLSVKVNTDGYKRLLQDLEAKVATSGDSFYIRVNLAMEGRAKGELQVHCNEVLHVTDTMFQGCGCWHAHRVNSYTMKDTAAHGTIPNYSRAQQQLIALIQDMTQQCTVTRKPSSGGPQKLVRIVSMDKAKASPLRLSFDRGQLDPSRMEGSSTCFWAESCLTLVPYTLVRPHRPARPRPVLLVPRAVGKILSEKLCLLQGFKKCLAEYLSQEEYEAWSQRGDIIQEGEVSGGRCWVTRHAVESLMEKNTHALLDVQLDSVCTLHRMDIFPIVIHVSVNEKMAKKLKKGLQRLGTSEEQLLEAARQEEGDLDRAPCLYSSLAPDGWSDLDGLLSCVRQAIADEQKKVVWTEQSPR
UniProt Q9UDY8: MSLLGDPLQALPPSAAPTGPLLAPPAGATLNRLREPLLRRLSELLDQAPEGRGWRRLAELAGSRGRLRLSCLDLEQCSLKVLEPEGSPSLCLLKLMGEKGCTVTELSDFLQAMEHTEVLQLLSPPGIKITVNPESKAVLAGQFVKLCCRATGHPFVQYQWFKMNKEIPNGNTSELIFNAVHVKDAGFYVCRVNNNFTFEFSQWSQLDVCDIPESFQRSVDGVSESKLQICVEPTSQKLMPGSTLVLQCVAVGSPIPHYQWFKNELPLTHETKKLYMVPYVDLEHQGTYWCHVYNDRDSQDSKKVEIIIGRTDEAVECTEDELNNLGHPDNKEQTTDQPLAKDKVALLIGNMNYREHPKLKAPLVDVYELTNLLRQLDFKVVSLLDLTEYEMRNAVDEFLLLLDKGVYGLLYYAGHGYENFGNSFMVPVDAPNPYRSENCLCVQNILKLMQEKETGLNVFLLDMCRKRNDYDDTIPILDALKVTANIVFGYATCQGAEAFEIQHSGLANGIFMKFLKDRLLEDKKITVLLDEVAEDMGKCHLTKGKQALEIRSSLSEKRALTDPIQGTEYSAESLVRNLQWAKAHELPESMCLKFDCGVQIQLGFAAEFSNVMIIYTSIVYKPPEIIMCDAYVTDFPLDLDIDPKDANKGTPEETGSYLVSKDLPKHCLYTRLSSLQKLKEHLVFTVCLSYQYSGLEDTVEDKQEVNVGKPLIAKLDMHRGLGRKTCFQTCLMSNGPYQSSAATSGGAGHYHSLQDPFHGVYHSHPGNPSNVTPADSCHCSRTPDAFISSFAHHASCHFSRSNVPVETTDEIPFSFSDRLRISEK
UniProt Q15075: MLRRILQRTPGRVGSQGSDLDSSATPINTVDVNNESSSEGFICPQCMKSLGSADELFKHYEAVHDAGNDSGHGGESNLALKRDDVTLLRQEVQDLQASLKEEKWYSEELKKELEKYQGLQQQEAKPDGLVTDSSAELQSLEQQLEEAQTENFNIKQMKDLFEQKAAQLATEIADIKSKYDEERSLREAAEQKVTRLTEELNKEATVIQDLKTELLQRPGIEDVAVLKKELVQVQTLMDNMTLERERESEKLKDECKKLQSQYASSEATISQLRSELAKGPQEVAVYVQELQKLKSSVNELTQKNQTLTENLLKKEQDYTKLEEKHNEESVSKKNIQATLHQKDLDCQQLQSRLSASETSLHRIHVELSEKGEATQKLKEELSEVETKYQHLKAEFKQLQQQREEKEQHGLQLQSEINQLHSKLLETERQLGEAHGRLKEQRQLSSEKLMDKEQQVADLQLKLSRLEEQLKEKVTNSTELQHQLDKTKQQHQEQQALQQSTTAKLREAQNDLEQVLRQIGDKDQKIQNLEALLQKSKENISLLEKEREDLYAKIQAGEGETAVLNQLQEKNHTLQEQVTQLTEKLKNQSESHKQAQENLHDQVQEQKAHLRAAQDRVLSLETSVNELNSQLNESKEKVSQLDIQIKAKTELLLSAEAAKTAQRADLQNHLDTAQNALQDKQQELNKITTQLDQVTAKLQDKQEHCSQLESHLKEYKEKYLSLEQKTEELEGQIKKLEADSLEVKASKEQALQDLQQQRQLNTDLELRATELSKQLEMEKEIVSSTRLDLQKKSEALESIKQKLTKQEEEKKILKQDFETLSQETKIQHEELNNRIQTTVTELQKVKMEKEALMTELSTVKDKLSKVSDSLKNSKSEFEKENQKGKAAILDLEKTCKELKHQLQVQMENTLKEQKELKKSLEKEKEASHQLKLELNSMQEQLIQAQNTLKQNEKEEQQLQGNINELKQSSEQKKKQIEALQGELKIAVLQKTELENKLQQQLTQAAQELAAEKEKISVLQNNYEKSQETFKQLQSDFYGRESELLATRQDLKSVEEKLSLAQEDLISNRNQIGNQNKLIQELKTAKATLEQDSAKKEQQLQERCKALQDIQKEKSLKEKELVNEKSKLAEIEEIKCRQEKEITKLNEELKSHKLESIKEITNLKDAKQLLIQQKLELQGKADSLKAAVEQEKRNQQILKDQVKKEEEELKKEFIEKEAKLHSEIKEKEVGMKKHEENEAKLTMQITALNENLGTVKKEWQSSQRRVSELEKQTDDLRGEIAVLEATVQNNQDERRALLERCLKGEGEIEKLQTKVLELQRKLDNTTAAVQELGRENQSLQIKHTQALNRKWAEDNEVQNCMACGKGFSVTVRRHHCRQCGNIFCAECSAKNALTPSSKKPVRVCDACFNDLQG
UniProt Q96EP0: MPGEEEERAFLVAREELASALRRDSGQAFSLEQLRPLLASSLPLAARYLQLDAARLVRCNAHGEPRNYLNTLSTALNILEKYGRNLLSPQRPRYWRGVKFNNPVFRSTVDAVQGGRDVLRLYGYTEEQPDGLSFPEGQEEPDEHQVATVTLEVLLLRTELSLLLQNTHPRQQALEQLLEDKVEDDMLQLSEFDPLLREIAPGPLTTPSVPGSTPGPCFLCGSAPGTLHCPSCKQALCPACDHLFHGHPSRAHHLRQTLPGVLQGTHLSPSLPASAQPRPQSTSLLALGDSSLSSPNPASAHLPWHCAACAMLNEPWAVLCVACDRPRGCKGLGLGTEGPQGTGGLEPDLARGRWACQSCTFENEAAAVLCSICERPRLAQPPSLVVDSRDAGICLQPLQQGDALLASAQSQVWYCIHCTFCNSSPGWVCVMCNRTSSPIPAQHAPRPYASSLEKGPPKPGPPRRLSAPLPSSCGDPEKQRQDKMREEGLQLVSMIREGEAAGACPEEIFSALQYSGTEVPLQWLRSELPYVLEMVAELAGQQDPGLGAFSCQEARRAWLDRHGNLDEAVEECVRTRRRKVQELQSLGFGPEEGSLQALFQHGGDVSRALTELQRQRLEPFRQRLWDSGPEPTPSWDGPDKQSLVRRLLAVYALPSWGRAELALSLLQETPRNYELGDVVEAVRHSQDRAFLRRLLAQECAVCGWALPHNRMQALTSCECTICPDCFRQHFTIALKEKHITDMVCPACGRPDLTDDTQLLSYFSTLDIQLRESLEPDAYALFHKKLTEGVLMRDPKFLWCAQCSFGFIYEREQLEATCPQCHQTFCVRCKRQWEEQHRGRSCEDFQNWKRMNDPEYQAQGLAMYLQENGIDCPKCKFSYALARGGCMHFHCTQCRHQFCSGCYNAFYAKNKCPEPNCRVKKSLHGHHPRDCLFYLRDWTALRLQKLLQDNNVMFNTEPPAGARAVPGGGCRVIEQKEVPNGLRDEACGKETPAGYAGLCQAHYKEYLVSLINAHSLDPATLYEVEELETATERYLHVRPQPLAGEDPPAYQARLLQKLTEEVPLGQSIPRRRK
UniProt Q13489: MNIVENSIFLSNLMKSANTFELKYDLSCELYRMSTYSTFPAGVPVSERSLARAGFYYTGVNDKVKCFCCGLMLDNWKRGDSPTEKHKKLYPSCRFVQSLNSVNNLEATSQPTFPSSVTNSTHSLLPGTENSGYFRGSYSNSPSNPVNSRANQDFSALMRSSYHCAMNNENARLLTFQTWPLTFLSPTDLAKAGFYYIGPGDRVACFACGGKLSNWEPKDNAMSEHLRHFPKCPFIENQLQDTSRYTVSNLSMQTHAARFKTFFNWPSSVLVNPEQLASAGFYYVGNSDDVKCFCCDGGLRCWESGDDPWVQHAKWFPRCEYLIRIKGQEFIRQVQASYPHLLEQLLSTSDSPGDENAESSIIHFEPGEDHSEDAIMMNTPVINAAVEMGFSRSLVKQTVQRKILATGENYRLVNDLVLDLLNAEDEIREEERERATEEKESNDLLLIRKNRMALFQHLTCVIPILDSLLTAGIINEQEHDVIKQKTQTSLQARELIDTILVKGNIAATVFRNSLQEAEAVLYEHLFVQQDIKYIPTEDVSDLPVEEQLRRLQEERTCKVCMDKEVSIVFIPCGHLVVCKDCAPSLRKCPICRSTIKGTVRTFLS

No constants are given. Whether binding was seen depends on the method and setting. In cells and extracts the contact can be indirect. Some entries that bind do so weakly or less than the wild type.

The target of assay [1] is CARD14^WT-3xFLAG (human) (UniProt Q9BXL6). Put plainly: co-IP; anti-FLAG M2 agarose, 4°C 2 h, from HaCaT-TR lysates after 3 h tetracycline; lysis buffer 150 mM NaCl, 50 mM Tris pH 7.5, 10% glycerol, 0.25% Triton X-100; immunoblot of endogenous partners; also done in HOIP-, TRAF6-, A20-, ABIN1-, TRAF2-, cIAP2-deficient and birinapant-treated (cIAP1-depleted) cells.
The target in assay [2] is CARD14^E138A-3xFLAG (human) (UniProt Q9BXL6). The description is as above.
The target of assay [3] is CARD14^WT-3xFLAG (human) (UniProt Q9BXL6). The assay is described as follows: proximity ligation; anti-FLAG with anti-MALT1 or anti-EEA1 staining in HaCaT-TR cells ± tetracycline (3 h).
Assay [4] concerns the target CARD14^E138A-3xFLAG (human) (UniProt Q9BXL6). Described as above.

With “MALT1 (Mucosa-associated lymphoid tissue lymphoma translocation protein 1) (from UniProt Q9UDY8 1-824)”, the binding result was “no binding” with CARD14^WT-3xFLAG (human) [1], “binds” in assay [2], “no binding” with CARD14^WT-3xFLAG (human) [3] and “binds” in assay [4]. For EEA1 (from UniProt Q15075 1-1411), the binding result with CARD14^WT-3xFLAG (human) [3] is “no binding”. Take “HOIP (RNF31) (from UniProt Q96EP0 1-1072)”: the binding result in assay [2] was “binds”. Same read-out and setting: the result for “cIAP2 (BIRC3) (from UniProt Q13489 1-604)” reads “binds”.

B1: TAK1 (protein, UniProt O43318 1-606)
chain: MSTASAASSSSSSSAGEMIEAPSQVLNFEEIDYKEIEVEEVVGRGAFGVVCKAKWRAKDVAIKQIESESERKAFIVELRQLSRVNHPNIVKLYGACLNPVCLVMEYAEGGSLYNVLHGAEPLPYYTAAHAMSWCLQCSQGVAYLHSMQPKALIHRDLKPPNLLLVAGGTVLKICDFGTACDIQTHMTNNKGSAAWMAPEVFEGSNYSEKCDVFSWGIILWEVITRRKPFDEIGGPAFRIMWAVHNGTRPPLIKNLPKPIESLMTRCWSKDPSQRPSMEEIVKIMTHLMRYFPGADEPLQYPCQYSDEGQSNSATSTGSFMDIASTNTSNKSDTNMEQVPATNDTIKRLESKLLKNQAKQQSESGRLSLGASRGSSVESLPPTSEGKRMSADMSEIEARIAATTAYSKPKRGHRKTASFGNILDVPEIVISGNGQPRRRSIQDLTVTGTEPGQVSSRSSSPSVRMITTSGPTSEKPTRSHPWTPDDSTDTNGSDNSIPMAYLTLDHQLQPLAPCPNSKESMAVFEQHCKMAQEYMKVQTEIALLLQRKQELVAELDQDEKDQQNTSRLVQEHKKLLDENKSLSTYYQQCKKQLEVIRSQQQKRQGTS
With B1, in assay [2], the binding result was “binds”.

B2: BCL10 (B cell lymphoma protein 10) (protein, UniProt O95999 1-233)
chain: MEPTAPSLTEEDLTEVKKDALENLRVYLCEKIIAERHFDHLRAKKILSREDTEEISCRTSSRKRAGKLLDYLQENPKGLDTLVESIRREKTQNFLIQKITDEVLKLRNIKLEHLKGLKCSSCEPFPDGATNNLSRSNSDESNFSEKLRASTVMYHPEGESSTTPFFSTNSSLNLPVLEVGRTENTIFSSTTLPRPGDPGAPPLPPDLQLEEEGTCANSSEMFLPLRSRTVSRQ
On to B2, for which the binding result in assay [2] is listed as “binds”.
